Source: patent publication US12257237B2 (priority 2017, dated 2025)
Values joined by “and” are separate entries in the source; they are usually repeats but may differ in a detail not shown here. Equal entries are not always repeated. Further values from the same series stand in other lists.

Tested on: DD013 dedifferentiated liposarcoma
Assay: Antitumour activity in DD013 dedifferentiated liposarcoma xenograft model
Assay type: in vivo, Athymic nude mice
Experimental: Experiments were performed with female Athymic nude mice, 9-10 weeks old obtained from Harlan Laboratories (Udine, Italy). They were maintained under Specific Pathogen Free conditions with constant temperature and humidity, according to the institutional guidelines.
Tumour growth mice was monitored two/three times a week (depending on tumour growth rate, to avoid unnecessary stress to the animals) by Vernier caliper. Mice were sacrificed when tumour reached a mean weight of 2±0.5 gr. The antitumour activity will be expressed as T/C %, where T and C were the mean tumour weight of treated and control groups, respectively. Mice were monitored daily and weighted at least two times a week. Tolerability was evaluated on the basis of body weight loss (BWL) and clinical observation.
Statistical analysis was performed with GraphPad Prism version 6.01 software (GraphPad software, Inc., La Jolla, CA, USA). ANOVA test was performed to evaluate if there were statistically significant differences between treated and control groups.
Briefly, xenografts were obtained by transplanting 3-4 mm tumour fragments s.c. in the flanks of mice. The growing tumour masses were measured with the aid of a Vernier caliper, and the tumour weights (TW, 1 mm^3=1 mg) were calculated by the formula: length×(width) 2/2. When tumour load achieved about 200-400 mg, mice were randomized into the experimental groups.

With Cn1c(CCCCCCC(=O)NO)nc2cc(N(CCCl)CCCl)ccc21 [EDO-S101, 7-(5-(bis(2-chloroethyl)amino)-1-methyl-1H-benzo[d]imidazol-2-yl)-N-hydroxyheptanamide] the “DD0113 tumour weight, individual mouse” value (EDO60: EDO-S101 60 mg/kg q7dx3, day 100 from inoculum, 60 mg/kg) was 2099.8 mg and 463.0 mg, the “DD0113 tumour weight, individual mouse” value (EDO60: EDO-S101 60 mg/kg q7dx3, day 111 from inoculum, 60 mg/kg) was 2171.7 mg and 368.4 mg and the “DD0113 tumour weight, individual mouse” value (EDO60: EDO-S101 60 mg/kg q7dx3, day 114 from inoculum, 60 mg/kg) was 2520.5 mg and 487.7 mg. For the same molecule, the “DD0113 tumour weight, individual mouse” value (EDO60: EDO-S101 60 mg/kg q7dx3, day 118 from inoculum, 60 mg/kg) was 3030.9 mg and 526.7 mg, the “DD0113 tumour weight, individual mouse” value (EDO80: EDO-S101 80 mg/kg single dose, day 23 from inoculum, 80 mg/kg) was 176.4 mg and 118.7 mg and 113.3 mg and 81.5 mg and the “DD0113 tumour weight, individual mouse” value (EDO80: EDO-S101 80 mg/kg single dose, day 26 from inoculum, 80 mg/kg) was 236.0 mg and 145.4 mg and 152.8 mg and 89.0 mg. For the same molecule, the “DD0113 tumour weight, individual mouse” value (EDO80: EDO-S101 80 mg/kg single dose, day 29 from inoculum, 80 mg/kg) was 229.9 mg and 182.9 mg and 95.7 mg and 80.4 mg, the “DD0113 tumour weight, individual mouse” value (EDO80: EDO-S101 80 mg/kg single dose, day 33 from inoculum, 80 mg/kg) was 247.0 mg and 151.7 mg and 103.9 mg and 105.2 mg and the “DD0113 tumour weight, individual mouse” value (EDO80: EDO-S101 80 mg/kg single dose, day 36 from inoculum, 80 mg/kg) was 242.1 mg and 168.5 mg and 129.4 mg and 109.8 mg. For the same molecule, the “DD0113 tumour weight, individual mouse” value (EDO80: EDO-S101 80 mg/kg single dose, day 40 from inoculum, 80 mg/kg) was 257.3 mg and 140.9 mg and 130.0 mg and 119.3 mg, the “DD0113 tumour weight, individual mouse” value (EDO80: EDO-S101 80 mg/kg single dose, day 43 from inoculum, 80 mg/kg) was 284.6 mg and 164.8 mg and 116.9 mg and 109.5 mg and the “DD0113 tumour weight, individual mouse” value (EDO80: EDO-S101 80 mg/kg single dose, day 47 from inoculum, 80 mg/kg) was 335.7 mg and 167.6 mg and 97.1 mg and 132.0 mg. The “DD0113 tumour weight, individual mouse” value (EDO80: EDO-S101 80 mg/kg single dose, day 50 from inoculum, 80 mg/kg) was 416.1 mg and 184.9 mg and 91.6 mg and 171.9 mg, the “DD0113 tumour weight, individual mouse” value (EDO80: EDO-S101 80 mg/kg single dose, day 54 from inoculum, 80 mg/kg) was 708.8 mg and 836.1 mg and 469.2 mg and 456.3 mg and 339.2 mg and 434.6 mg and 213.4 mg and 125.8 mg and 186.9 mg and the “DD0113 tumour weight, individual mouse” value (EDO80: EDO-S101 80 mg/kg single dose, day 58 from inoculum, 80 mg/kg) was 920.2 mg and 863.6 mg and 593.4 mg and 628.6 mg and 525.3 mg and 442.9 mg and 248.6 mg and 167.1 mg and 212.9 mg. For the same molecule, the “DD0113 tumour weight, individual mouse” value (EDO80: EDO-S101 80 mg/kg single dose, day 62 from inoculum, 80 mg/kg) was 943.1 mg and 970.6 mg and 633.0 mg and 680.2 mg and 527.0 mg and 583.0 mg and 199.9 mg and 187.7 mg and 219.1 mg, the “DD0113 tumour weight, individual mouse” value (EDO80: EDO-S101 80 mg/kg single dose, day 65 from inoculum, 80 mg/kg) was 1025.7 mg and 939.0 mg and 636.4 mg and 670.6 mg and 491.0 mg and 567.8 mg and 201.7 mg and 107.7 mg and 222.7 mg and the “DD0113 tumour weight, individual mouse” value (EDO80: EDO-S101 80 mg/kg single dose, day 69 from inoculum, 80 mg/kg) was 1144.1 mg and 909.3 mg and 591.5 mg and 550.9 mg and 478.8 mg and 587.8 mg and 164.5 mg and 146.5 mg and 211.1 mg. For the same molecule, the “DD0113 tumour weight, individual mouse” value (EDO80: EDO-S101 80 mg/kg single dose, day 75 from inoculum, 80 mg/kg) was 1250.1 mg and 779.7 mg and 675.2 mg and 634.0 mg and 567.6 mg and 519.9 mg and 185.4 mg and 158.8 mg and 277.5 mg, the “DD0113 tumour weight, individual mouse” value (EDO80: EDO-S101 80 mg/kg single dose, day 79 from inoculum, 80 mg/kg) was 1330.0 mg and 618.2 mg and 650.1 mg and 690.9 mg and 573.1 mg and 621.4 mg and 212.9 mg and 135.0 mg and 245.2 mg and the “DD0113 tumour weight, individual mouse” value (EDO80: EDO-S101 80 mg/kg single dose, day 83 from inoculum, 80 mg/kg) was 1450.9 mg and 575.5 mg and 509.7 mg and 400.2 mg and 507.9 mg and 115.7 mg and 117.9 mg and 122.5 mg. For the same molecule, the “DD0113 tumour weight, individual mouse” value (EDO80: EDO-S101 80 mg/kg single dose, day 87 from inoculum, 80 mg/kg) was 1616.4 mg and 647.4 mg and 823.3 mg and 496.0 mg and 665.8 mg and 136.4 mg and 195.7 mg and 171.6 mg, the “DD0113 tumour weight, individual mouse” value (EDO80: EDO-S101 80 mg/kg single dose, day 90 from inoculum, 80 mg/kg) was 1617.7 mg and 735.1 mg and 987.9 mg and 466.5 mg and 740.1 mg and 153.4 mg and 227.0 mg and 182.9 mg and the “DD0113 tumour weight, individual mouse” value (EDO80: EDO-S101 80 mg/kg single dose, day 94 from inoculum, 80 mg/kg) was 2114.0 mg and 1048.7 mg and 1242.6 mg and 555.8 mg and 814.4 mg and 240.1 mg and 306.5 mg and 285.8 mg. For the same molecule, the “DD0113 tumour weight, individual mouse” value (EDO80: EDO-S101 80 mg/kg single dose, day 98 from inoculum, 80 mg/kg) was 2225.7 mg and 1385.7 mg and 1194.7 mg and 782.4 mg and 918.1 mg and 164.4 mg and 464.1 mg and 282.5 mg, the “DD0113 tumour weight, individual mouse” value (EDO80: EDO-S101 80 mg/kg single dose, day 100 from inoculum, 80 mg/kg) was 3065.0 mg and 1722.4 mg and 1733.1 mg and 996.2 mg and 1052.7 mg and 303.2 mg and 413.3 mg and 392.7 mg and the “DD0113 tumour weight, individual mouse” value (EDO80: EDO-S101 80 mg/kg single dose, day 103 from inoculum, 80 mg/kg) was 2981.4 mg and 1979.3 mg and 1845.5 mg and 1231.1 mg and 1125.6 mg and 320.3 mg and 529.9 mg and 396.4 mg.
